Test results: US9914754B2 (Angiochem Inc., priority 2008, dated 2018)

Test: general procedure: Fmoc solid-phase peptide synthesis; Pre-loaded Fmoc-Leu-Wang resin (0.48 mmol/g); Rink amide MBHA resin with Nle (0.40 mmol/g) for ANG-Cys-NH2; HBTU/NMM (TBTU or HCTU for some peptides)
Settings: for final purity (method not given): HPLC
[1] = whole synthesis, scale of the general procedure 100 μmol

Substance | final HPLC purity (conjugation step) | final purity (method not given) (conjugation step, run 1) | final purity (method not given) (conjugation step, run 2) | final purity (method not given) [1] | final HPLC purity [1]
NT-AN2Cys-NH2 | purity HPLC>95% | purity>95% | ≧95% | – | –
Ac-KRRPD-YIL-OH | – | – | – | ≧95% | purity HPLC≧95%
pGlu-LysNT(8-13) | – | – | – | ≧95% | –
MHA-RRPYIL-OH | – | – | – | – | purity HPLC ≧95%
